# From PubChem BioAssay AID2685 (National Center for Advancing Translational Sciences (NCATS), 2010)
# The other results are listed elsewhere or left out. These are further read-outs of the screen, such as a control signal, another cell line or another target. No call is given for them. Most of these compounds were active or inconclusive in the main read-out, so they are no random draw. Potencies come from curve fits of mixed quality, noted in brackets.
# Assay: qHTS Assay for Lipid Storage Modulators in Drosophila S3 Cells;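 for cell number change: cells counted by Cell Tracker Red CMTPX staining in the red channel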
# Details: BODIPY lipid droplet fluorescence, 18-24 h; for cell number change: measured here: cell count max response, cells fed with added oleic acid
# How it was run: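 Laser-scanning cytometry quantifies lipid droplet accumulation (500–530 nm total intensity; droplet/cell object ratio) in oleic acid-fed (400 uM added) Drosophila S3 cells treated with a concentration series. 20 uM Triacsin C defined 100% inhibition.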
# [1] = measured here: lipid fluorescence (Fed channel) AC50, cells fed with added oleic acid
# [2] = measured here: cell number channel AC50, cells fed with added oleic acid
Compound,cell number change [%],AC50 [1],AC50 [2]
O=C(O)Cn1c(CCS(=O)(=O)c2ccc(Br)cc2)nc2ccccc21,-16.1,"29.1 µM [falling, single point]",–
O=C1C2C3C=CC(C3)C2C(=O)N1/N=C/c1cn(Cc2ccccc2)c2ccccc12 (stereo not drawn),-0.203,–,–
O=C(/C=C/c1ccccc1[N+](=O)[O-])N1CCCCC1,2.61,–,–
NS(=O)(=O)c1ccc(Nc2ccc3cc(S(=O)(=O)N4CCCCC4)ccc3n2)cc1,-51.3,"29.1 µM [falling, single point]","29.1 µM [falling, single point]"
Cc1ccccc1-n1c(C)nnc1SCC(=O)N(C)C1CCS(=O)(=O)C1 (stereo not drawn),52,"2.59 µM [rising, full curve]","29.1 µM [rising, single point]"
CC(C)CCNC(=O)/C=C/c1ccc(Br)cc1,24.1,"8.2 µM [rising, partial curve, poor fit]",–
Cc1ccc(CSc2nnc(-c3cccc(S(=O)(=O)N4CCOCC4)c3)n2CC(C)C)cc1,-100,–,"29.1 µM [falling, single point]"
CC(NC(=O)COC(=O)c1ccc(CO)cc1)C1CC2CCC1C2 (stereo not drawn),18.7,"3.26 µM [falling, partial curve]",–
Fc1ccc(NCc2ccccc2F)cc1Cl,-39.1,"29.1 µM [falling, single point]","20.6 µM [falling, single point]"
Cc1c(CCO)c(=O)[nH]n1C(=O)c1ccc(F)cc1,-1.32,"0.82 µM [rising, full curve, poor fit]",–
CN(C)S(=O)(=O)n1cnc(-c2ccccc2)c1-c1ccccc1,–,"4.11 µM [rising, partial curve]","2.59 µM [rising, partial curve]"
COc1ccc(/C=N/N2CCN(C)CC2)c(OC)c1OC,-47.9,"18.4 µM [falling, partial curve]","23.1 µM [falling, partial curve]"
CC(C)CCn1c(SCc2ccc(Cl)cc2)nc2c1c(=O)[nH]c(=O)n2C,-8.14,"0.058 µM [falling, partial curve, poor fit]",–
Cc1nonc1NC(=O)CSc1nnc(-c2ccoc2C)n1C,-20.2,"0.82 µM [falling, single point]",–
CCCCc1ccc(-n2nnnc2SCC(=O)Nc2cc(OC)c([N+](=O)[O-])cc2C)cc1,31.5,"2.59 µM [rising, partial curve]","1.84 µM [rising, full curve]"

# 2 compounds drawn at random from those above, as already listed:
Compound,cell number change [%],AC50 [1],AC50 [2]
Cc1nonc1NC(=O)CSc1nnc(-c2ccoc2C)n1C,-20.2,"0.82 µM [falling, single point]",–
O=C1C2C3C=CC(C3)C2C(=O)N1/N=C/c1cn(Cc2ccccc2)c2ccccc12 (stereo not drawn),-0.203,–,–
